Five molecules from article PMC7353009, “Identification of Substrates of Cytoplasmic Peptidyl-Prolyl Cis/Trans Isomerases and Their Collective Essentiality in Escherichia Coli” (International Journal of Molecular Sciences, 2020) can be followed below.

Sequences of proteins named here, by UniProt entry; tags and fusion partners are left off.
UniProt P0AFG0: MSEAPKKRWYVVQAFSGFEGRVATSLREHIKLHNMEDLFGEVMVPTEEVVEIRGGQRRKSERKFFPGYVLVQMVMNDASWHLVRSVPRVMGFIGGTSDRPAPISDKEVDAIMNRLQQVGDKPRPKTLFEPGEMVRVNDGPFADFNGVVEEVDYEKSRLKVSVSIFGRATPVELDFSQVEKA
UniProt P0A7Z4: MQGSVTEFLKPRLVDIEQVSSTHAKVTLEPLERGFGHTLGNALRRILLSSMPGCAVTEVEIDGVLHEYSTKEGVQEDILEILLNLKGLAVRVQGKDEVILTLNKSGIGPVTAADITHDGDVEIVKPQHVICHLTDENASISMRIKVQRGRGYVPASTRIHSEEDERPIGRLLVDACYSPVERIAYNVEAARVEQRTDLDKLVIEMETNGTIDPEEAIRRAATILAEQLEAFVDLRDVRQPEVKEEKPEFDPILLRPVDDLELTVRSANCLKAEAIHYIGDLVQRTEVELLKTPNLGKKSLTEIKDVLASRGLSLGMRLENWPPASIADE

No constants are given. Whether binding was seen depends on the method and setting. Binding seen in cells or lysates may run through a third protein. Some binding calls cover weakened binding; strength is not graded here. Tags and fused reporters may be left off the sequences shown.

T1: PpiC::3xFLAG (wild type, chromosomal) (E. coli) (UniProt P0A9L5)
T1 sequence: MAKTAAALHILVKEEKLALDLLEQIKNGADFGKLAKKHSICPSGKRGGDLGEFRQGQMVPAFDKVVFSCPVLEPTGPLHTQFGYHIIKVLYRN

B1: alkyl hydroperoxide reductase subunit C (AhpC) (protein, UniProt P0AE08 1-187)
chain: MSLINTKIKPFKNQAFKNGEFIEITEKDTEGRWSVFFFYPADFTFVCPTELGDVADHYEELQKLGVDVYAVSTDTHFTHKAWHSSSETIAKIKYAMIGDPTGALTRNFDNMREDEGLADRATFVVDPQGIIQAIEVTAEGIGRDASDLLRKIKAAQYVASHPGEVCPAKWKEGEATLAPSLDLVGKI
B2: SeqA (protein, UniProt P0AFY8 1-181)
chain: MKTIEVDDELYSYIASHTKHIGESASDILRRMLKFSAASQPAAPVTKEVRVASPAIVEAKPVKTIKDKVRAMRELLLSDEYAEQKRAVNRFMLLLSTLYSLDAQAFAEATESLHGRTRVYFAADEQTLLKNGNQTKPKHVPGTPYWVITNTNTGRKCSMIEHIMQSMQFPAELIEKVCGTI
B3: YrdA (protein, UniProt P0A9W9 1-184)
chain: MSDVLRPYRDLFPQIGQRVMIDDSSVVIGDVRLADDVGIWPLVVIRGDVHYVQIGARTNIQDGSMLHVTHKSSYNPDGNPLTIGEDVTVGHKVMLHGCTIGNRVLVGMGSILLDGAIVEDDVMIGAGSLVPQNKRLESGYLYLGSPVKQIRPLSDEEKAGLRYSANNYVKWKDEYLDQGNQTQP

The target of the assay is T1, PpiC::3xFLAG (wild type, chromosomal) (E. coli). Nature of the assay: co-IP; cell extracts of strains with chromosomal single-copy 3xFLAG-tagged PpiC, ANTI-FLAG M2 gel, 12 h at 4 °C, native elution with 3xFLAG peptide, SDS-PAGE and silver staining.
Regarding NusG (from UniProt P0AFG0 1-181), the binding entry is recorded as “binds”.

As to RpoA (from UniProt P0A7Z4 1-329), the binding entry was “binds”.

On to B1, for which the binding entry was “binds”.

For B2, the binding result is “binds”.

As to B3, the binding result was “binds”.
